PubChem BioAssay AID540303 (National Center for Advancing Translational Sciences (NCATS), 2011)
Hit rate of the full screen: of about 330,000 compounds, about 1,000 (0.3%) were called active. Inconclusive means that the source gave no clear call. Such entries were picked first, then a sample of the others. The call rests on the fitted dose curve; in most records, active means well fitted inhibition curve with a large enough effect; inconclusive means small, poorly fitted or top-dose-only effect; inactive means no such curve, though single readings can be large or run the other way; tested in mouse RAW 264.7 cells. A potency beside an inconclusive call is a rough fit, not a confirmed value.

assay: qHTS for Inhibitors of Cell Surface uPA Generation; settings: cell surface uPA generation assay; series mostly up to 38.3 µM; activity change, negative = inhibition: at the top concentration; further: nearly all actives have a fitted effect of over 55% in size
How it was run: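 ATP-Lite luminescence in RAW 264.7 cells after 24 h of exposure to compound, tested up to 38.3 uM final in 1:5 steps. Raised ATP reflects inhibition of uPA-dependent LF delivery to the cytoplasm.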
On the % scale 0 is the no-effect control and ±100 the full control effect; potency means the concentration at half of the fitted maximal effect.

Compound | Potency | activity change, negative = inhibition
CCN(CC)CCNC(=O)c1ccc(NC(=O)c2cccc(S(=O)(=O)N3c4ccccc4CC3C)c2)cc1 (centres undefined) | inconclusive: 8.91 µM [inhibitor, partial curve, poor fit] | 
CC(C)N(c1ccccc1)c1ccc(NC(=O)CCl)cc1 | inconclusive: 11.2 µM [inhibitor, partial curve, poor fit] | 
CCN(C(=O)COC(=O)c1n[nH]c2ccccc12)c1ccccc1 | inconclusive: 12.6 µM [inhibitor, single point] | 
COc1ccc(C(=O)COC(=O)c2cccnc2Cl)c(OC)c1 |  | inactive: -1.73%
NC(=O)c1ccsc1NC(=O)COC(=O)Cc1ccccc1Cl | inconclusive: 14.1 µM [inhibitor, partial curve, poor fit] | 
CCOc1cc(S(=O)(=O)NCCc2cccc(C)c2)c(OCC)cc1-n1cnnn1 |  | inactive: -2.83%
COc1cc(C(=O)O/N=C(\N)c2ccc([N+](=O)[O-])cc2)cc(OC)c1OC | inconclusive: 12.6 µM [inhibitor, single point] | 
CCOc1ccc(NC(=O)c2ccc(NC(=O)c3ccc(NC(N)=O)cc3)cc2)cc1 |  | inactive: 1.14%
COc1cc(OC)c2c(=O)cc(-c3ccccc3)oc2c1 | inconclusive: 10 µM [inhibitor, partial curve, poor fit] | 
COc1ccc(NC(=O)/C(C#N)=C/c2c(C)nn(-c3ccc(F)cc3)c2Cl)cc1OC | inconclusive: 12.6 µM [inhibitor, single point] | 
CC#CC#Cc1cccc(=O)o1 | active: 5.01 µM | 
Cc1ccc(NC(=O)OCc2cc(-c3ccccc3)on2)cc1 |  | inactive: 0.365%
COc1ccc2c(C)cc(=O)oc2c1 |  | inactive: -5.91%
Cc1cc(O)c(C(C)C)cc1N=Cc1cc([N+](=O)[O-])ccc1O |  | inactive: 5.39%
COc1ccc(Cc2nnc(NC(=O)c3cc(OC)cc(OC)c3)s2)cc1 | inconclusive: 14.1 µM [inhibitor, single point] | 
COc1ccc(OC)c(/C=C2\SC(=S)N(NS(=O)(=O)c3ccccc3)C2=O)c1 | inconclusive: 3.16 µM [inhibitor, partial curve, poor fit] | 
CCOC(=O)CSc1nnc(NC(=O)c2ccc3c(c2)OCO3)s1 | inconclusive: 4.47 µM [inhibitor, partial curve, poor fit] | 
O=C(Nc1ccccc1N1CCCCC1)c1cc(S(=O)(=O)N2CCOCC2)ccc1F | inconclusive: 10 µM [inhibitor, single point] | 
CN(C)c1ccc(/C=N/NC(=O)C(O)c2ccc(Br)cc2)cc1 (centres undefined) | inconclusive: 5.01 µM [inhibitor, partial curve, poor fit] | 
Nc1c(C(=O)NCC2CCCO2)c2nc3ccccc3nc2n1/N=C/c1ccncc1 (centres undefined) |  | inactive: 0.896%
COc1ccc(NC(=O)N2CCC(CO)(CC3CCCCO3)CC2)c(OC)c1 (centres undefined) |  | inactive: -1.46%
CCc1ccc(-c2nc(CN3CCCC(C(=O)NCCc4ccc(OC)c(OC)c4)C3)c(C)o2)cc1 (centres undefined) |  | inactive: -4.26%
COc1cc2cnc(-c3cccnc3)cc2cc1OC | inconclusive: 8.91 µM [inhibitor, single point] | 

A different layout for some results above.
Cc1cc(O)c(C(C)C)cc1N=Cc1cc([N+](=O)[O-])ccc1O
  activity change, negative = inhibition: inactive: 5.39%
COc1ccc(Cc2nnc(NC(=O)c3cc(OC)cc(OC)c3)s2)cc1
  Potency: inconclusive: 14.1 µM [inhibitor, single point]
COc1ccc(OC)c(/C=C2\SC(=S)N(NS(=O)(=O)c3ccccc3)C2=O)c1
  Potency: inconclusive: 3.16 µM [inhibitor, partial curve, poor fit]
CCOC(=O)CSc1nnc(NC(=O)c2ccc3c(c2)OCO3)s1
  Potency: inconclusive: 4.47 µM [inhibitor, partial curve, poor fit]

Later entries

Compound | Potency | activity change, negative = inhibition
COc1ccc2nc(Nc3nc(C)c(C(C)=O)s3)sc2c1 |  | inactive: -12%
O=C(CC(c1ccccc1)c1ccccc1)NCCO |  | inactive: 5.33%
O=C(/C=C/c1ccccc1)NC(=S)Nc1ccc(CN2CCOCC2)cc1 |  | inactive: -16.2%
O=C1CNC(=S)N1C1CCCCCC1 |  | inactive: -0.202%
O=C(NC1CCCC1)C(c1ccncc1)N(Cc1cccs1)C(=O)c1csnn1 (centres undefined) |  | inactive: -5.99%
COc1ccc(-n2nc(C)cc2N)cc1 | inconclusive: 14.1 µM [inhibitor, partial curve, poor fit] | 
O=S1(=O)c2ccc(Br)cc2N2CCC[C@@H]2CN1Cc1ccccc1 | inconclusive: 7.94 µM [inhibitor, partial curve, poor fit] | 
O=C(Nc1cc(Br)ccc1O)c1cc(-c2ccco2)on1 | inconclusive: 1.78 µM [inhibitor, partial curve, poor fit] | 
NC(=O)NC(=O)CSc1cccc(C(F)(F)F)c1 |  | inactive: 3.1%
COc1ccc(NC(=O)C2C3CCC(O3)C2C(=O)O)cc1OC (centres undefined) | inconclusive: 11.2 µM [inhibitor, partial curve, poor fit] | 
O=C(CCc1ccccc1Cl)Nc1cccc(S(=O)(=O)N2CCCC2)c1 | inconclusive: 10 µM [inhibitor, partial curve, poor fit] | 
CC1CCCCC1NC(=O)COc1ccccc1C#N (centres undefined) | inconclusive: 7.94 µM [inhibitor, partial curve, poor fit] | 
COc1ccc2oc(C(=O)NC3CCCCC3)c(C)c2c1 |  | inactive: 1.27%
O=[N+]([O-])c1cc(-c2csc(NCCc3nc4cc(Cl)c(N5CCCCC5)cc4n3CCCO)n2)ccc1Cl | inconclusive: 12.6 µM [inhibitor, single point] | 
Cc1ccc2sc(N(CCCN(C)C)C(=O)c3ccc(S(=O)(=O)N(C)C4CCCCC4)cc3)nc2c1C | inconclusive: 7.94 µM [inhibitor, partial curve, poor fit] | 
CC(C)CSc1nc(N)nc2c1ncn2C1OC(CO)C(O)C1O (centres undefined) |  | inactive: 2.32%
CCOc1ccccc1CNC(=O)c1nn(C)c2c1CS(=O)(=O)c1ccccc1-2 |  | inactive: 3.45%
COCCN1C=C2C(=O)C(C)(OC(=O)C3CCCC3)C(=O)C(c3ccccc3)=C2C=C1CCCC(=O)OC (centres undefined) | inconclusive: 6.31 µM [inhibitor, partial curve] | 
COc1ccc(C(=O)Nc2ccc(S(=O)(=O)N3CCCC3)cc2)cc1 |  | inactive: 1.62%
N#C/C(=C\c1ccc(O)c(O)c1)C(=O)Nc1ccccc1 | inconclusive: 2.82 µM [inhibitor, partial curve] | 
CCN1CCC(O)(/C=C/c2ccc(C(C)C)cc2)C(C(=O)/C=C/c2ccc(C(C)C)cc2)C1 (centres undefined) |  | inactive: -9.43%
CC(=O)Nc1cccc(-c2cn3ccc(C)cc3n2)c1 | inconclusive: 7.08 µM [inhibitor, partial curve, poor fit] | 
Cc1ccc(CCNC(=O)CN2C(=O)COc3ccc(S(=O)(=O)N4CCC(C)CC4)cc32)cc1 | inconclusive: 2.82 µM [inhibitor, partial curve, poor fit] | 

One compound at a time, as listed above.
COCCN1C=C2C(=O)C(C)(OC(=O)C3CCCC3)C(=O)C(c3ccccc3)=C2C=C1CCCC(=O)OC (centres undefined) is entered as Potency: inconclusive: 6.31 µM [inhibitor, partial curve]
Cc1ccc(CCNC(=O)CN2C(=O)COc3ccc(S(=O)(=O)N4CCC(C)CC4)cc32)cc1 is entered as Potency: inconclusive: 2.82 µM [inhibitor, partial curve, poor fit]

Remaining list, next part

Compound | Potency | activity change, negative = inhibition
O=C(Nc1cc(S(=O)(=O)N2CCCCCC2)ccc1OCC(F)(F)F)c1ccc(=O)[nH]c1 | inconclusive: 3.55 µM [inhibitor, partial curve, poor fit] | 
Cc1ccc(CSc2nnc(SCC(=O)N/N=C/c3ccccc3OCC(=O)O)s2)cc1 | inconclusive: 7.94 µM [inhibitor, partial curve, poor fit] | 
CCC(C(=O)OCC(=O)Nc1ccc(C)c(S(=O)(=O)N2CCOCC2)c1)c1ccccc1 (centres undefined) | inconclusive: 12.6 µM [inhibitor, partial curve, poor fit] | 
COc1ccc([C@H]2CC(=O)C=C(c3cc(OC)ccc3OC)C2)cc1 | inconclusive: 10 µM [inhibitor, partial curve] | 
COc1ccc(-c2noc(CCCCC(=O)N3CCN(c4cc(C)ccc4C)CC3)n2)cc1 | inconclusive: 11.2 µM [inhibitor, partial curve, poor fit] | 
O=C(CSc1nc(O)c(Cc2ccccc2)c(=O)[nH]1)N1CCOCC1 | inconclusive: 1.41 µM [inhibitor, full curve, poor fit] | 
Cc1ccc(N(CC(=O)NCCc2ccc(F)cc2)S(=O)(=O)c2ccc(Cl)c([N+](=O)[O-])c2)c(C)c1 | inconclusive: 12.6 µM [inhibitor, single point] | 
O=C(Nc1ccc2c(c1)CCC2)Nc1ccccc1F | inconclusive: 10 µM [inhibitor, single point] | 
COc1ccc(NC(=O)c2cnn(-c3ccccc3)c2C)cc1 | inconclusive: 11.2 µM [inhibitor, partial curve, poor fit] | 
COC(=O)CCC(=O)OC |  | inactive: -5.92%
COC(=O)c1cc(NC(=O)Nc2cccc(Cl)c2)ccc1Cl | inconclusive: 12.6 µM [inhibitor, single point] | 
O=C(Nc1nnc(-c2cccs2)o1)c1cccc(F)c1 | inconclusive: 3.98 µM [inhibitor, partial curve] | 
CC1(C)Cc2c(c(N3CCOCC3)nc3sc(C(=O)Nc4cccc(Cl)c4)c(N)c23)CO1 |  | inactive: 11.7%
O=C(Nc1ccc(NC(=O)c2ccco2)nc1)c1cccnc1 |  | inactive: -10.3%
CCO[C@@H]1OC(C(=O)N2CCN(Cc3ccccc3)CC2)=C[C@H](c2ccc(Br)cc2)[C@H]1CCCO | inconclusive: 12.6 µM [inhibitor, partial curve, poor fit] | 
CCc1cc(C(=O)N2CCCC(CNC(=O)c3ccc(-c4ccccc4)cc3)C2)no1 (centres undefined) |  | inactive: -2.23%
COc1ccccc1NC(=O)Nc1nc(CC(=O)N2CCN(c3ccccc3F)CC2)cs1 |  | inactive: -2.81%
Oc1ccc(NCc2cccc(OCc3ccc(F)cc3)c2)cc1 | inconclusive: 10 µM [inhibitor, partial curve, poor fit] | 
COc1cc(SC)ccc1C(=O)Nc1ccc2c(c1)OCCO2 | inconclusive: 2 µM [inhibitor, partial curve, poor fit] | 
COc1ccc(OC)c2sc(N(CCCN(C)C)C(=O)CCS(=O)(=O)c3ccccc3)nc12 | inconclusive: 12.6 µM [inhibitor, single point] | 
COc1ccc(C2SCCN2S(=O)(=O)c2ccc(NC(C)=O)cc2)cc1OC (centres undefined) | inconclusive: 1.58 µM [inhibitor, full curve, poor fit] | 
CCCn1c(SCC(=O)Nc2cccc(C)n2)nnc1C(C)C |  | inactive: 1.36%
COc1ccc(Cl)cc1Nc1cc(C)nc2ccccc12 | inconclusive: 28.2 µM [inhibitor, single point] | 
